Results published in paper PMC4815241 (Protein Science : A Publication of the Protein Society, 2015).
These are yes or no findings as the source states them, for the method shown.

Molecular target: human eIF4GII residues 551–745 (human) (UniProt O43432)
Assay: SEC-MALS; Superdex 200 10/300 in assay buffer, miniDAWN light scattering instrument, 100 µg sample; both purified

B1: human eIF4GII residues 551–745 (domain or fragment, UniProt O43432 551-745, looked up)
chain: GFHPERDPSDLKKVKAVEENGEEAEPVRNGAESVSEGEGIDANSGSTDSSGDGVTFPFKPESWKPTDTEGKKQYDREFLLDFQFMPACIQKPEGLPPISDVVLDKINQPKLPMRTLDPRILPRGPDFTPAFADFGRQTPGGRGVPLLNVGSRRSQPGQRREPRKIITVSVKEDVHLKKAENAWKPSQKRDSQADD
- binding: no binding
